Laboratory results: patent US20250188184A1
Positions count from the first letter of the chain named. No constants are given. Whether binding was seen depends on the method and setting. Some entries that bind do so weakly or less than the wild type.

The chains behind the UniProt entries cited, without tags or fusion partners. Residues count along the entry.
UniProt Q04609, residues 44-750: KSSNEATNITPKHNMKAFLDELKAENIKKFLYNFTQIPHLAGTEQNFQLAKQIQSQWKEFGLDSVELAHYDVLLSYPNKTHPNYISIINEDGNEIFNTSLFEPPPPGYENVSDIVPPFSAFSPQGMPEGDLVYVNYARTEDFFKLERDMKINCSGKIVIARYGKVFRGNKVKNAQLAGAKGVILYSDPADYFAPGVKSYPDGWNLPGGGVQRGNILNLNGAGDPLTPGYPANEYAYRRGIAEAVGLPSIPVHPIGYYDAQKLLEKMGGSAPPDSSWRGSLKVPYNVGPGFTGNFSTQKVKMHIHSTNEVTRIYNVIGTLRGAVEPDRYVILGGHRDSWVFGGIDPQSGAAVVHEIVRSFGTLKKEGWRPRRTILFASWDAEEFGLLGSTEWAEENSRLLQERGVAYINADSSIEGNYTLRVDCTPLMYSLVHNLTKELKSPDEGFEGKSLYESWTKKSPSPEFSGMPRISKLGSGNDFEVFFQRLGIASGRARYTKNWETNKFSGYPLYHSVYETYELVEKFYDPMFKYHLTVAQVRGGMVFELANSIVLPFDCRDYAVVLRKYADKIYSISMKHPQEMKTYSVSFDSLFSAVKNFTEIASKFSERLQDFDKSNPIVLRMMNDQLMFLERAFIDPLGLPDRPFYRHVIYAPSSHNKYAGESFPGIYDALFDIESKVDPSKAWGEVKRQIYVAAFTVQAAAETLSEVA

B1: uTCE of AC2717 (PSMA.5, VHH3, with CD3.23) (bispecific antibody, V domains shown)
VHH: QVQLVESGGGVVQPGRSLRLSCAASGRTFGIYVMGWVRQAPGKEREFVAAISWSGSNRLVSDSVKGRFTISRDNSKNTLYLQMNSLRAEDTAVYYCAASNRLYGRTWYDFNESDYWGQGTQVTVSS
VL: ELVVTQEPSLTVSPGGTVTLTCRSSNGAVTSSNYANWVQQKPGQAPRGLIGGTNKRAPGTPARFSGSLLGGKAALTLSGVQPEDEAVYYCALWYPNLWVFGGGTKLTVL
VH: EVQLLESGGGIVQPGGSLKLSCAASGFTFNTYAMNWVRQAPGKGLEWVARIRSKYNNYATYYADSVKDRFTISRDDSKNTVYLQMNNLKTEDTAVYYCVRHENFGNSYVSWFAHWGQGTLVTVSS
B2: uTCE of AC2728 (PSMA.6, VHH14, with CD3.23) (bispecific antibody, V domains shown)
VH: B1 VHH with Q1E, Y95F, Q121T

Biological target: human PSMA (human) (UniProt Q04609)
Test: uTCE with CD3.23

Binder | binding
B1 | binds
B2 | binds
